Among the data in US20110104157A1, “LIVER CANCER DRUG” (Chugai Seiyaku Kabushiki Kaisha, priority 2008, published 2011) are binding values, retold here.

Chains of the proteins cited; added tags and fusions are not shown. Lines headed by an entry give the natural chain unless they say otherwise; changes in a name come on top.
UniProt P51654: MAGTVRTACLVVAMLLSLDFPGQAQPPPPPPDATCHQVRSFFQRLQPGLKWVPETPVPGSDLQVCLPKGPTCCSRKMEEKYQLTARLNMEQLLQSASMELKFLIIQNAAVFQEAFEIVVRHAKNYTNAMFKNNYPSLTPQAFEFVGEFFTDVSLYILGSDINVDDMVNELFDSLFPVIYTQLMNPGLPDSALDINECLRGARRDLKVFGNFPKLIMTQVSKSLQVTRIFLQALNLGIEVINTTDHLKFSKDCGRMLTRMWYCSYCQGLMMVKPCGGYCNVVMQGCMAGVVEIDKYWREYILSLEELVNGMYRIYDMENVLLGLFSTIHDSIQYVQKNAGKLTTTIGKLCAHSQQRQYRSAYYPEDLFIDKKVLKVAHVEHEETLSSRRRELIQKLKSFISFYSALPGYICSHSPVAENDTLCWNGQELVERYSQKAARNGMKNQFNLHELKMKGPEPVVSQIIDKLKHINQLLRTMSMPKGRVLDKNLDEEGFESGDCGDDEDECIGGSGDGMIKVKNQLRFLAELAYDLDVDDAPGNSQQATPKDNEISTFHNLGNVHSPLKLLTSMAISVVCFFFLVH

Results are given in words; binding and its absence hold for the method and conditions named. Some entries that bind do so weakly or less than the wild type.

In this experiment the target is soluble GPC3 core polypeptide (Homo sapiens (Human)) (UniProt P51654). The experiment in a line: competitive ELISA by the method of Reference Example 3, competitor biotinylated H0L0. For orientation: An ELISA detects its analyte on a solid surface through an enzyme-linked reagent.

B1: pH7pL16 antibody (antibody, V domains shown)
VH: QVQLVQSGAEVKKPGASVTVSCKASGYTFTDYEMHWIRQPPGEGLEWIGAIDPKTGDTAYSESFQDRVTLTADKSTSTAYMELSSLTSEDTAVYYCTRFYSYTYWGQGTLVTVSS
VL: DIVMTQSPLSLPVTPGEPASISCQASESLVHSNRNTYLHWYLQKPGQSPQLLIYKVSNRFSGVPDRFSGSGSGTDFTLKISRVEAEDVGVYYCSQNTHVPPTFGQGTKVEIE
Take B1: the binding result is recorded as “binds”.
